Measurements from PubChem BioAssay AID540276 (National Center for Advancing Translational Sciences (NCATS), 2011).
The whole screen tested about 300,000 compounds, of which about 5,400 (1.8%) were called active. Inconclusive results, whose numbers are uncertain, are shown with a selection of clear calls. Calls follow the shape of the full dose curve; tested in HEK293 cells. A potency beside an inconclusive call is a rough fit, not a confirmed value.

test: qHTS for inhibitors of binding or entry into cells for Marburg Virus; conditions: Marburg virus pseudotyped entry inhibition, cell reporter; activity change, negative = inhibition: at 37.8 µM (top of the series) unless noted
% is scaled to controls: 0 for no effect and ±100 for the full control effect; potency is read from the fitted curve at half-maximal effect.

Row | Compound | Potency | activity change, negative = inhibition
1 | CC1(C)Cc2cccc(OCC(=O)N3CCN(S(=O)(=O)c4ccccc4F)CC3)c2O1 | inconclusive: 35.5 µM [inhibitor, single point] | –
2 | CN1C(=O)C(=Cc2cccnc2)C(=O)N(C)C1=O | – | inactive: 15.2%
3 | Cc1ccccc1N(C(=O)Cc1cccs1)C(C(=O)NCC1CCCO1)c1cccnc1 (stereo not drawn) | inconclusive: 5.17 µM [inhibitor, single point] | –
4 | Cc1ccc(C)c(N2CCN(CCCNC(=O)Cn3ncc4c5ccccc5n(C)c4c3=O)CC2)c1 | – | inactive: -9.15% [at 46.1 µM]
5 | CCOC(=O)c1cn(-c2ccccc2)nc1-c1cccnc1 | inconclusive: 11.2 µM [activator, single point] | –
6 | COc1cc(C(=O)NC(=S)NNC(=O)[C@H]2C[C@@H]2c2ccccc2)cc(OC)c1OC | inconclusive: 1.12 µM [activator, full curve, poor fit] | –
7 | COC(=O)c1ccc(OCCN2C3=NCCN3c3ccccc32)cc1 | inconclusive: 25.1 µM [inhibitor, single point] | –
8 | COc1ccc(C(C)(C)C)cc1NS(=O)(=O)c1cccc2cccnc12 | inconclusive: 14.1 µM [inhibitor, single point] | –
9 | O=C(COc1ccccc1Cl)NCCc1ccc2c(c1)OCCO2 | inconclusive: 35.5 µM [activator, single point] | –
10 | CN1CCc2c(cc(O)c(O)c2Cl)C(c2cccc(Cl)c2)C1 (stereo not drawn) | inconclusive: 0.282 µM [inhibitor, full curve, poor fit] | –
11 | N#C/C(=C\c1cccc([N+](=O)[O-])c1)c1nnc2n1CCCCC2 | inconclusive: 9.2 µM [inhibitor, partial curve, poor fit] | –
12 | O=C(O)c1cc(=O)cc(C(=O)O)[nH]1 | inconclusive: 11.6 µM [activator, partial curve, poor fit] | inconclusive: -59.5% [inhibitor]
13 | CN1CCC(OC(=O)c2ccco2)CC1 | – | inactive: -6.72%
14 | COc1ccc(OCCN(C)CC(=O)Nc2c(C)cccc2C)cc1 | – | inactive: 17.5%
15 | COc1ccc(Oc2c(Cl)cnn(-c3ccc(Cl)c(Cl)c3)c2=O)cc1 | inconclusive: 35.5 µM [inhibitor, single point] | –
16 | Cc1nn(C)c(C(=O)Nc2ccc(Br)cc2F)c1Br | – | inactive: 6.51%
17 | Cc1ccc(NC(=S)N(CCCN2CCN(C)CC2)Cc2cccs2)cc1 | inconclusive: 10 µM [inhibitor, partial curve, poor fit] | –
18 | O=C(CSCc1cccs1)N1CCCC1 | inconclusive: 7.94 µM [activator, partial curve, poor fit] | –
19 | CSc1ccc(CN(C)CC(=O)NC(C)c2ccccc2)cc1 (stereo not drawn) | inconclusive: 3.16 µM [inhibitor, partial curve, poor fit] | –
20 | CCN1CCN(CCCNC(=O)c2ccc3c(=O)n(CCc4ccccc4)c(=O)[nH]c3c2)CC1 | inconclusive: 11.2 µM [inhibitor, single point] | –
21 | Cc1c(OCc2ccc([N+](=O)[O-])cc2)ccc2c3c(c(=O)oc12)CCC3 | inconclusive: 35.5 µM [inhibitor, single point] | –

Row | Compound | Potency | activity change, negative = inhibition
22 | COc1cc(C)nc(N2CCCC(C(=O)Nc3cc(Cl)ccc3OC)C2)n1 (stereo not drawn) | inconclusive: 35.5 µM [inhibitor, partial curve, poor fit] | –
23 | OC(COCc1ccccc1)COCc1ccccc1 | inconclusive: 1.26 µM [activator, single point] | –
24 | CCN(C(=O)c1ccc(S(C)(=O)=O)cc1)C12CC3CC(CC(C3)C1)C2 | inconclusive: 5.62 µM [inhibitor, single point] | –
25 | Cc1ccc(S(=O)(=O)NCCC(=O)NCC(c2ccco2)N2CCCCC2)cc1C (stereo not drawn) | inconclusive: 22.4 µM [inhibitor, single point] | –
26 | COc1ccc2nc(NC(=O)CCNC(=O)c3ccccc3Cl)sc2c1 | inconclusive: 15.8 µM [activator, single point] | –
27 | NC(=O)C1CCN(c2ccc([N+](=O)[O-])cc2Cl)CC1 | inconclusive: 35.5 µM [inhibitor, single point] | –
28 | Cc1cc2c(cc1C)/C(=N/NC(=O)c1ccccn1)CCC2 | inconclusive: 15.8 µM [activator, partial curve, poor fit] | –
29 | CCCOc1ccc(CNC(=O)C(CC)n2nc(C)c3sc4ccccc4c3c2=O)cc1 (stereo not drawn) | inconclusive: 17.8 µM [activator, partial curve, poor fit] | –
30 | COc1ccc(-c2cc3nc4n(c(=O)c3s2)CCC4)cc1 | active: 1.64 µM | –
31 | COc1ccccc1NC(=O)c1ccc(SCC(=O)NCc2ccccc2Cl)c([N+](=O)[O-])c1 | – | inactive: -18.4%
32 | Cc1ccccc1N(CC(=O)Nc1ccccc1C(=O)NCc1ccco1)S(=O)(=O)c1ccccc1 | inconclusive: 22.4 µM [inhibitor, single point] | –
33 | O=C(NC(=S)NC1CCCCC1)c1ccc(Cl)cc1 | inconclusive: 15.8 µM [activator, partial curve, poor fit] | –
34 | Cc1ccc(OS(=O)Nc2cccc3nccnc23)cc1 (stereo not drawn) | inconclusive: 7.3 µM [inhibitor, partial curve, poor fit] | –
35 | N#C/C(C(=O)N1CCOCC1)=C1/SC(Cc2ccccc2)C(=O)N1c1ccccc1 (stereo not drawn) | inactive | –
36 | Cc1ccc(S(=O)(=O)N(CC(=O)N2CCCC2)C2CCCCC2)cc1 | – | inactive: -17.4%
37 | Cc1ccc(NC(=O)C2Cc3ccccc3CN2C(=O)c2ccccc2)cc1Cl (stereo not drawn) | inconclusive: 29.1 µM [inhibitor, single point] | –
38 | Cc1ccc(CNC(=O)C2CCN(c3nc4ccccc4n(C)c3=O)CC2)cc1 | – | inactive: 11.7% [at 46.1 µM]
39 | CCOc1ccc(/C=N/NC(=O)c2ccc(CSc3nc4ccccc4[nH]3)cc2)cc1 | inconclusive: 6.51 µM [inhibitor, single point] | –
40 | CCOc1ccc2nc(NC(=O)c3ccc(C)o3)sc2c1 | inconclusive: 17.8 µM [inhibitor, single point] | –
41 | CCNC(=S)N1CCNC(=O)C1CC(=O)OC (stereo not drawn) | – | inactive: 6.34% [at 46.1 µM]
42 | COC(=O)c1cc2sc(Cl)cc2n1CC(=O)NCC1CCCO1 (stereo not drawn) | inconclusive: 0.206 µM [inhibitor, full curve, poor fit] | –

Quoted at random: 3 compounds from above
Row | Compound | Potency | activity change, negative = inhibition
19 | CSc1ccc(CN(C)CC(=O)NC(C)c2ccccc2)cc1 (stereo not drawn) | inconclusive: 3.16 µM [inhibitor, partial curve, poor fit] | –
12 | O=C(O)c1cc(=O)cc(C(=O)O)[nH]1 | inconclusive: 11.6 µM [activator, partial curve, poor fit] | inconclusive: -59.5% [inhibitor]
34 | Cc1ccc(OS(=O)Nc2cccc3nccnc23)cc1 (stereo not drawn) | inconclusive: 7.3 µM [inhibitor, partial curve, poor fit] | –
